Consider twelve molecules from patent US20060177440A1.

Results are given in words; binding and its absence hold for the method and conditions named. For part of these data: Binding calls can cover weak binding; strength is not graded here.

Holding throughout (experiment): Fab/phage agglutination (anti-M13)
The target of assay [1] is partial Rh(D) antigen, D category III (human).
The target in assay [2] is partial Rh(D) antigen, D category VI (human).
Assay [3] deals with partial Rh(D) antigen, D category IVa (human).
The target of assay [4] is partial Rh(D) antigen, D category V (human).
Assay [5] addresses partial Rh(D) antigen, D category IVb (human).
For assay [6], the target named is partial Rh(D) antigen, D category VII (human).

B1: SH56 (Fab, V domains shown)
VH: EVQLLESGGGVVQPGRSLRLSCAASGFTFSSYGMHWVRQAPGKGLEWVAVVYYDGSNKHYSDSVKGRFTIFRDNSKNTLYLQMDSLRAEDTAVYYCARERNFRSGYSRYYYGMDVWGPGTTVTVSS
VL: AELTQSPSSLSASVGDRVTITCRASQSISRYLNWYQQKPGKAPKLLIYAASSLQSGVPSRFSGSGSGTDFALTISSLLPEDFATYYCQQGYSTPPYSFGQGTKLEIKR
As for B1, the binding result in assay [1] is reported as “binds”; in assay [2], “no binding”; in assay [3], “no binding”; in assay [4], “no binding”; in assay [5] it was “no binding”; in assay [6] it was “no binding”.

B2: SH53 (Fab, V domains shown)
VH: EVQLLESGGGGVQPGRSLRLSCAASGFTFNSYAMYWVRQPPGKGLEWVAAIWYDGSNKEYADFVKGRFTISRDNSKNTLSLQMNSLRDEDTAVYYCAREANLLRGWSRYYYGMDVWGQGTTVTVSS
VL: AELQDPVVSVALGQTVRITCQGDGLRSYYASWYQQKPGQAPKLVMYGRNNRPSGIPGRFSGSSSGQTAALTITGTQAEDEADYYCQSRATSGNPVVFGGGTKLTVL
Regarding B2, the binding result in assay [1], in assay [2], in assay [3], in assay [4], in assay [5] and in assay [6] was “no binding” in each case.

B3: SH10 (Fab, V domains shown)
VH: VQLLEESGGGVVQPGRSLRLSCAASGFTFSRNGMHWVRQAPGKGLEWVAFIWFDGSNKYYADSVKGRFTISRDNSKNTLYLQMNSLRADDTAVYYCAREEALFRGLTRWSYGMDVWGQGTTVSVSS
VL: AELQDPVVSVALGQTVRITCQGDGLRSYYASWYQQKPGQAPKLVMYGRNNRPSGIPGRFSGSSSGQTAALTITGTQAEDEADYYCQSRATSGNPVVFGGGTKLTVL
B3: the binding result in assay [1], in assay [2], in assay [3], in assay [4], in assay [5] and in assay [6] was “no binding” each time.

B4: SH32 (Fab, V domains shown)
VH: EVQLLESGGGVVQPGRSLRLSCEASKFTLYNYGMHWVRQAPGKGLEWVAFIWFDGSNKYYEDSVKGRFTVSRDNSKNTLYLQMNSLRAEDTAVYYCARELSKKVALSRYYYYMDVWGQGTTVTVSS
VL: AELTQEPSLTVSPGGTVTLTCASSTGAVTSRYFPNWFQQKPGQAPRALIYGSNNKHSWTPARFSGSLLGGKAALTLSGVQPEDEAEYYCLLFYAGAWAFGGGTKLTVL
With B4, the binding entry in assay [1], in assay [2], in assay [3], in assay [4], in assay [5] and in assay [6] was “no binding” each time.

B5: SH39 (Fab, V domains shown)
VH: VQLLEQSGGGVVQPGRSLRLSCAASGFTFSSYGMHWVRQAPGKGLEWVAVIWFDGSNKEYADSVKGRFTISRDNSKNTLYLQMNSLRAEDTAVYYCAREEVVRGVILWSRKFDYWGQGTLVTVSS
VL: AELTQSPSSLSASVGDRVTITCRASQTIGRYLNWYQQRPGKAPKLLVYAVSSLQSGAPSRFSGSGSGTHFTLTITSLQPEDFATYFCQQSYSSPFTFGQGTKVEIKR
B5: the binding result in assay [1], in assay [2], in assay [3], in assay [4], in assay [5] and in assay [6] was “no binding” in each case.

B6: SH55 (Fab, V domains shown)
VH: EVQLLESGGGVVQPGRSLRLSCVVSGFTFNNYGMHWVRQAPGKGLEWVAVIWFDGSNKYYADSVKGRFTISRDNSKNTLYLQMNSLRAEDTAVYYCARENQIKLWSRYLYYFDYWGQGTLVTVSS
VL: AELTQPPSASGTPGQRVTISCSGSSSNIGSKYVYWYQQLPGTAPKLLIYSNNQRPSGVPDRFSAFKSGTSASLAITGLQAEDEANYYCQSYDSGLSGWVFGGGTKLTVL
Turning to B6, the binding entry in assay [1] is given as “binds”; in assay [2] it was “no binding”; in assay [3], “no binding”; in assay [4], “binds”; in assay [5], “no binding”; in assay [6] it was “binds”.

B7: SH47 (Fab, V domains shown)
VH: EVQLLESGGGVVQPGRSLRLSCAASGFSFSNYAMHWVRQAPGKGLEWVAVTSFDGSIKDYADSVKGRFTISRDNSKNTLYLQMNSLRDEDTAVYYCARERGMIVVVRRRNAFDIWGQGTMVTVSS
VL: AELTQSPSSLSASVGDRVTITCRASQSISNYLNWYQQKPGKAPNLLIYAASSLQSGVPSRFSGSGSGTDFTLTISSLQPEDFATYYCQQSYSYPRTFGQGTKVEIRR
Take B7: the binding result in assay [1] is “binds”; in assay [2], “no binding”; in assay [3], “no binding”; in assay [4], “binds”; in assay [5], “no binding”; in assay [6] it was “binds”.

B8: SH36 (Fab, V domains shown)
VH: EVQLLESGGGVVQPGRSLRLSCEASKFTLYNYGMHWVRQAPGKGLEWVAFIWFDGSNKYYEDSVKGRFTVSRDNSKNTLYLQMNSLRAEDTAVYYCAREGSKKVALSRYYYYMDVWGQGTTVTVSS
VL: AELTQSPSSLSASVGDRVTITCRASQSISSYLNWYQQKPGKSPKLLIYAASSLQSGVPSRFSGSGSGTDFTLTISSLQPEDFATYYCQQSYSTPPAFGPGTKVDIKR
For B8, the binding result in assay [1], in assay [2], in assay [3], in assay [4], in assay [5] and in assay [6] was “no binding” throughout.

B9: SH54 (Fab, V domains shown)
VH: EVQLLESGGGVVQPGRSLRLSCAASGFTFSRNGMHWVRQAPGKGLEWVAFIWFDGSNKYYADSVKGRFTISRDNSKNTLYLQMNSLRADDTAVYYCAREEALFRGLTRWSYGMDVWGQGTTVSVSS
VL: AELTQSPSSMSASVGDRVTITCRASQSIGTYLNWYQQKPGKAPKLLIYAASSLQSGVPSRFSGSGSGTDFTLTISSLQPEDFATYYCQQSYSTPWTFGQGTKVEIKR
As to B9, the binding entry in assay [1] is “binds”; in assay [2], “no binding”; in assay [3], “no binding”; in assay [4], “no binding”; in assay [5], “no binding”; in assay [6] it was “binds”.

B10: SH48 (Fab, V domains shown)
VH: EVQLLESGGGVVQPGRSLRLSCAASGFSFSSYGMHWVRQAPGKGLEWVAVISYDGTNKYFADSVKGRFTISRDNSKKTLYLQMTSLRPEDTAVYFCANLRGEVTRRASVPLDIWGQGTMVTVSS
VL: AELTQSPSSLSASVGDRVTITCRASQYISSYLNWYQQKPGKAPNLLIYAASSLQSGVPSRFSGSGSGTDFTLTISSLQPEDFATYYCQQTYSSPSTFGPGTKVDIKR
Take B10: the binding entry in assay [1] is given as “binds”; in assay [2] it was “no binding”; in assay [3], “no binding”; in assay [4], “no binding”; in assay [5] it was “no binding”; in assay [6] it was “binds”.

B11: SH24 (Fab, V domains shown)
VH: EVQLLESGGGVAQPGRSLRLSCVASGFSLRSYGMHWVRQAPGKGLEWVADIWFDGSNKDYADSVKGRFTISRDNSKNTLYLQMNSLRAEDTAVYYCARDWRVRAFSSGWLSAFDIWGQGTMVTVSS
VL: AELTQSPSSLSASVGDRVTITCRASQSISTYLNWYQQRPGKAPNLLIYAASTLQRGVPSRFTGSGSGTDFTLTISSLQPEDFATYYCQQSYTTLWTFGQGTKMEIRR
As to B11, the binding entry in assay [1], in assay [2], in assay [3], in assay [4], in assay [5] and in assay [6] was “no binding” throughout.

B12: SH51 (Fab, V domains shown)
VH: EVQLLESGGGVVQPGRSLRLACAASGFSFRSYGMHWVRQAPGRGLEWVAFTWFDGSNKYYVDSVKGRFTISRDNSKNTLYLEMNSLRVDDTAVYYCAREASMLRGISRYYYAMDVWGPGTTVTVSS
VL: AELTQSPSFLSASVGDRVTITCRASQGIRSYLAWYQQKPGKAPKLLIYAASTLQSGVPSRFSGSGSGTEFTLTISSLQPEDFATYYCQQLNNYPPFTFGPGTKVDIKR
As to B12, the binding entry in assay [1] is recorded as “binds”; in assay [2] it was “no binding”; in assay [3], “no binding”; in assay [4], “binds”; in assay [5], “no binding”; in assay [6], “binds”.
